# Measurements taken from PubChem BioAssay AID2685 (National Center for Advancing Translational Sciences (NCATS), 2010).
# The other results are listed elsewhere or left out. The main result of the screen is listed elsewhere. These columns were measured beside it and carry no call. Compounds called inactive in the main read-out are mostly missing here. Potencies come from curve fits of mixed quality, noted in brackets.
# Experiment: qHTS Assay for Lipid Storage Modulators in Drosophila S3 Cells;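 for cell number change: cells counted by Cell Tracker Red CMTPX staining in the red channel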
# Conditions: BODIPY lipid droplet fluorescence, 18-24 h; for cell number change: measured here: cell count max response, cells fed with added oleic acid
# How it was run: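 Laser-scanning cytometry quantifies lipid droplet accumulation (500–530 nm total intensity; droplet/cell object ratio) in oleic acid-fed (400 uM added) Drosophila S3 cells treated with a concentration series. 20 uM Triacsin C defined 100% inhibition.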
# [1] = measured here: lipid fluorescence (Fed channel) AC50, cells fed with added oleic acid
# [2] = measured here: cell number channel AC50, cells fed with added oleic acid
Structure (SMILES),cell number change,AC50 [1],AC50 [2]
COC(=O)c1sc(-c2ccc(Cl)cc2)cc1NC(=O)CSCC(=O)O,8.56%,"8.2 µM [rising, partial curve]",–
Cc1nc(C(=O)N2CCCC(Nc3ccc(C)c(C)c3)C2)cs1 (centres undefined),21.7%,–,–
CCC(Sc1nc2ncccc2[nH]1)C(=O)NC1CCCC1 (centres undefined),23.7%,"2.06 µM [rising, single point]","1.16 µM [rising, full curve, poor fit]"
C(=N\c1c(-c2ccccc2)nc2n1CCS2)/c1ccccc1,6.48%,"29.1 µM [rising, single point]",–
Cc1sc2ncnc(Sc3nnnn3-c3ccc(Cl)cc3)c2c1C,-0.983%,–,–
Cc1cc(NC(=O)CSc2ncnc3sccc23)no1,-25.7%,"4.11 µM [falling, partial curve, poor fit]","4.11 µM [falling, single point]"
Cc1ccc(N2C(=O)CSC2=S)cc1C,-1.28%,–,–
COC(=O)/C(C#N)=C(/Nc1ccc(F)c(Cl)c1)C(F)(F)F,0.32%,"6.51 µM [rising, single point]",–
CC(c1ccccc1C(O)c1ccccc1)N(C)C (centres undefined),–,"6.51 µM [rising, partial curve]",–
COc1ccccc1NC(=O)C1CCN(S(=O)(=O)c2cccs2)CC1,-17.9%,"0.0103 µM [falling, full curve, poor fit]","6.51 µM [falling, single point]"
CC(Sc1ccc(Br)cc1)C(N)=O (centres undefined),–,"0.00206 µM [falling, full curve, poor fit]","2.31 µM [rising, single point]"
Cn1nnnc1SCC(=O)Nc1ccccc1-c1ccccc1,9.53%,"6.51 µM [rising, single point]",–
COc1cc(NC(=O)c2cc(OC)c(OC)c(OC)c2)cc(-n2cnnn2)c1,54.8%,"13 µM [falling, partial curve]","18.4 µM [rising, single point]"
COc1cc(NC(=O)c2cc(OC)c(OC)c(OC)c2)ccc1NC(=O)c1cccs1,-21.4%,"25.9 µM [falling, single point]",–
Cc1[nH]nc2c1C(c1ccc(F)cc1)C(C#N)=C(N)O2 (centres undefined),-11.2%,"0.206 µM [rising, partial curve]",–
O=C(N/N=C/c1ccc2c(c1)OCO2)c1sc2cc(Cl)ccc2c1Cl,82.6%,"6.51 µM [rising, single point]","4.11 µM [rising, full curve]"
COc1ccc(-n2c(-c3ccc(Br)cc3)n[nH]c2=S)cc1,10.2%,–,–

# A second format for three compounds above:
Structure (SMILES) | cell number change | AC50 [1] | AC50 [2]
Cc1ccc(N2C(=O)CSC2=S)cc1C | -1.28% | – | –
COC(=O)/C(C#N)=C(/Nc1ccc(F)c(Cl)c1)C(F)(F)F | 0.32% | 6.51 µM [rising, single point] | –
CC(c1ccccc1C(O)c1ccccc1)N(C)C (centres undefined) | – | 6.51 µM [rising, partial curve] | –
